# According to paper PMC10698143:
# The chains behind the UniProt entries cited, without tags or fusion partners.
# UniProt P15056: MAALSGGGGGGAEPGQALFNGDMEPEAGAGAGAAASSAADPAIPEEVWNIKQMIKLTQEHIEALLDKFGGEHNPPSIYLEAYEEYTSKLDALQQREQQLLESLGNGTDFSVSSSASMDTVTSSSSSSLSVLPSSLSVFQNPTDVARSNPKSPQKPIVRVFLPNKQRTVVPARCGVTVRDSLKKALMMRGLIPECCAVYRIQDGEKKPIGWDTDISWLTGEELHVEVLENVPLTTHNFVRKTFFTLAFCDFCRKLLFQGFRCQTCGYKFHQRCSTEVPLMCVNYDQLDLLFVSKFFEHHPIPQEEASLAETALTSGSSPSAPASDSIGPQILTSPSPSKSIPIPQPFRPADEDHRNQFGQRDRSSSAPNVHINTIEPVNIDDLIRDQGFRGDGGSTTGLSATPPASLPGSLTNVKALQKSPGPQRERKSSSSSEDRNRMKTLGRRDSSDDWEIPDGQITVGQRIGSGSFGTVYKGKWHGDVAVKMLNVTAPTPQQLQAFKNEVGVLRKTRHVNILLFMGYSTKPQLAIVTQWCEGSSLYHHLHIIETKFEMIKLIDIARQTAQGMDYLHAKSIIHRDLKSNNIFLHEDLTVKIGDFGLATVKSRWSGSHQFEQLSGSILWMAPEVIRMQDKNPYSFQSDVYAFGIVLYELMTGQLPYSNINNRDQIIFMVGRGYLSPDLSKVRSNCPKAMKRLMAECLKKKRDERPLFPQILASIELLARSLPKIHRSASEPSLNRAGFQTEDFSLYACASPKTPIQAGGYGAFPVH
# UniProt Q9UKI8: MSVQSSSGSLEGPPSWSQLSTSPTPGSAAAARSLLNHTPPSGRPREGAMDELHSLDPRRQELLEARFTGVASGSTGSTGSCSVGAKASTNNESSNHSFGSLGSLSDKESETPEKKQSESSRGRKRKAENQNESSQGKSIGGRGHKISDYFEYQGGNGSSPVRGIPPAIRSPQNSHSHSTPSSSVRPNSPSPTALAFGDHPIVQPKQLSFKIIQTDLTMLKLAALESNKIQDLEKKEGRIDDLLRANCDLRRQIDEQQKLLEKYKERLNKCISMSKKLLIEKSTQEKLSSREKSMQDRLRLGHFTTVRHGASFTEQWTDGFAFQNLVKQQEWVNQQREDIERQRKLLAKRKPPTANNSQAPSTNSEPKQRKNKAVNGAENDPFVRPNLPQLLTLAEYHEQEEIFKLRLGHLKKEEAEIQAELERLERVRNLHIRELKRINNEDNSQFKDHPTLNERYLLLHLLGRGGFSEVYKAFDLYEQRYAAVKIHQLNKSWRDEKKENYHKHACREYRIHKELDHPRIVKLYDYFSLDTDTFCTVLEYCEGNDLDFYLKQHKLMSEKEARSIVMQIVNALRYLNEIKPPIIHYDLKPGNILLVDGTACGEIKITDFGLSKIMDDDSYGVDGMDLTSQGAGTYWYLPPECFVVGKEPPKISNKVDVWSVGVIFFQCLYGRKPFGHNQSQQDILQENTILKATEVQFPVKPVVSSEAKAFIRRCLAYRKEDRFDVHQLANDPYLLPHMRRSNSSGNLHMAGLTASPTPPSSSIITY
# Results are given in words; binding and its absence hold for the method and conditions named. Binding seen in cells or lysates may run through a third protein. These calls come from enrichment with a bait or labelling near it, and not all partners need be listed.
# Molecular target: T1, Macrophage migration inhibitory factor (MIF) (human (endogenous in RCTE)) (UniProt P14174)
# T1 sequence: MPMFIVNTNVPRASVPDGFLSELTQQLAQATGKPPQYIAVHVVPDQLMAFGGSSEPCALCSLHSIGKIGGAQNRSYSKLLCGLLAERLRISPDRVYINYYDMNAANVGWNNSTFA
# Assay: peptide or protein array + affinity purification with mass spectrometry; hits named jointly for the HuProt protein chip screen and the MIF IP-MS screen; which screen found which kinase is not told
row,binding,Substance
1,binds,BRAF (from UniProt P15056 1-766) (enzyme)
2,binds,TLK1 (from UniProt Q9UKI8 1-766) (enzyme)
